Experimental data reported in paper PMC7665024, “Anti-apoptotic BCL-2 regulation by changes in dynamics of its long unstructured loop” (Communications Biology, 2020).

B1: EEE (protein)
chain: MAHAGRTGYDNREIVMKYIHYKLSQRGYEWDAGDVGAAPPGAAPAPGIFSSQPGHTPHPAASRDPVAREEPLQTPAAPGAAAGPALEPVPPVVHLTLRQAGDDFSRRYRRDFAEMSSQLHLTPFTARGRFATVVEELFRDGVNWGRIVAFFEFGGVMCVESVNREMSPLVDNIALWMTEYLNRHLHTWIQDNGGWDAFVELYGPSMRPLFDFSWLSL
modifications: Pacific Blue (maleimide) on the native cysteine 158; left off: His6, C-terminal, state not stated

Tested on: BCL-2
Test: DEER inter-spin distance distributions of double-spin-labeled BCL-2
Set-up: species or system human
Settings: spin-label pair 12/92, no ligand, 80 K

Row | Molecule | full-width-at-half-maximum of DEER distance distribution
1 | WT: TM-truncated wild-type human BCL-2 (BCL-2-ΔTM, residues 1–217, C-terminal His6-tag) | 1.81 nm
2 | B1 | 0.46 nm
